PubChem BioAssay AID743454, Peter MacCallum Cancer Centre – 2014
Shown is one part, drawn at random, of about 18,000 reagents tested. 450 of them (2.5%) were called active. 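Single biological run; no consistent viability z cut-off exists, so the class columns, not z-scores, define the calls.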 Unmarked entries are inactive.

Purpose: 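Search for knock-downs that restore vorinostat killing in resistant colon cancer cells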 (primary screen)
System: human HCT116-VR colon cancer cells, selected for vorinostat resistance
Reagent: siRNA pool against human genes, 40 nM siRNA pool
Duration: vorinostat for 24 h, read-out about 72 h after transfection
Challenge: vorinostat at 2.5 µM final
Measured: 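Cell viability by CellTiter-Fluor and caspase 3/7 activity by luminescence, each scaled to mock wells per plate, duplicates averaged, then robust z-scored over all plates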
Scale: viability robust z-score: higher = more viable cells than screen typical; caspase robust z-score: higher = more caspase 3/7 activity than screen typical
Hit rule: 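a knock-down is a hit when classed RV1 or RV2 for lowered viability, or CA1 or CA2 for caspase activation; those lethal without drug were dropped; hits were retested singly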

With MYOD1, what does the deposit list?
viability hit class: no change; caspase hit class: no change; viability robust z-score: 0.8; caspase robust z-score: -0.77

With NHLRC4, what does the deposit list?
viability hit class: no change; caspase hit class: no change; viability robust z-score: -0.09; caspase robust z-score: 0.18

What is on record for CPTP?
viability hit class: no change; caspase hit class: no change; viability robust z-score: -0.43; caspase robust z-score: 1.88

For TXK, what does the deposit list?
viability hit class: no change; caspase hit class: no change; viability robust z-score: -0.01; caspase robust z-score: -0.94

For PTGER1, what does the deposit list?
viability hit class: no change; caspase hit class: no change; viability robust z-score: 0.26; caspase robust z-score: 0.26

What is on record for SYT12?
viability hit class: no change; caspase hit class: no change; viability robust z-score: 1.34; caspase robust z-score: -0.3

Which result is listed for TMED1?
viability hit class: no change; caspase hit class: no change; viability robust z-score: -0.05; caspase robust z-score: -0.72

What is on record for HDAC9?
viability hit class: no change; caspase hit class: no change; viability robust z-score: -0.64; caspase robust z-score: 0.7

Which result is listed for RAB3C?
viability hit class: no change; caspase hit class: no change; viability robust z-score: -0.01; caspase robust z-score: -1

For UCMA, what was measured?
viability hit class: no change; caspase hit class: no change; viability robust z-score: 1.88; caspase robust z-score: 0.63

With ITK, what was measured?
viability hit class: no change; caspase hit class: no change; viability robust z-score: 0.86; caspase robust z-score: 0.78

For FAM234A, what was measured?
viability hit class: no change; caspase hit class: no change; viability robust z-score: -1.17; caspase robust z-score: 0.55

What did the screen give for GSE1?
viability hit class: no change; caspase hit class: no change; viability robust z-score: -0.69; caspase robust z-score: -0.48

What did the screen give for AMPD1?
viability hit class: no change; caspase hit class: no change; viability robust z-score: 0.54; caspase robust z-score: -0.5

What is on record for SERTM1?
viability hit class: no change; caspase hit class: no change; viability robust z-score: -0.48; caspase robust z-score: 0.9

With ECM1, how do the results read?
viability hit class: no change; caspase hit class: no change; viability robust z-score: -0.06; caspase robust z-score: -0.01

How did the screen score PTGR2?
viability hit class: no change; caspase hit class: no change; viability robust z-score: 0.54; caspase robust z-score: -0.64

What is on record for GEM?
viability hit class: no change; caspase hit class: no change; viability robust z-score: 0.48; caspase robust z-score: 0.32

What did the screen give for GIN1?
viability hit class: no change; caspase hit class: no change; viability robust z-score: -0.5; caspase robust z-score: 1.19

For CDH15, how do the results read?
viability hit class: no change; caspase hit class: no change; viability robust z-score: 0.2; caspase robust z-score: 5.06

What did the screen give for ATXN7L1?
viability hit class: no change; caspase hit class: no change; viability robust z-score: 1.73; caspase robust z-score: 1.44
